PubChem BioAssay AID540276 (National Center for Advancing Translational Sciences (NCATS), 2011)
Values joined by “and” are separate entries in the source; they are usually repeats but may differ in a detail not shown here. Equal values may be shown once. Out of some 300,000 compounds screened, about 5,400 (1.8%) were called active. The shares of active, inactive and inconclusive entries below differ from those in the screen. The call rests on the fitted dose curve; tested in HEK293 cells. A potency beside an inconclusive call is a rough fit, not a confirmed value.

Assay: qHTS for inhibitors of binding or entry into cells for Marburg Virus
Conditions: Marburg virus pseudotyped entry inhibition, cell reporter; activity change, negative = inhibition: at 37.8 µM (top of the series) unless noted
On the % scale 0 is the no-effect control and ±100 the full control effect; potency means the concentration at half of the fitted maximal effect.

Structure (SMILES) | activity change, negative = inhibition | Potency
CCOC(=O)CNC(=O)CSc1nc2c(C)cccc2cc1CC | inactive: 0.93% [at 46.1 µM] | –
S=C(NCCC(c1ccccc1)c1ccccc1)Nc1cccc(Cl)c1 | inactive: -3.71% | –
COc1ccc(C(=O)/C=C(/C)N(C)C)cc1 | – | inconclusive: 0.562 µM [activator, full curve, poor fit]
Cc1ccc(C2Nc3ccccc3-n3c(-c4ccccc4)c4c(=O)n(C)c(=O)n(C)c4c32)cc1 (stereo unspecified) | inactive: 7.43% [at 46.1 µM] | –
CCOC1=C/C(=C/c2c(N)n3nc(-c4ccccc4)sc3nc2=O)C=CC1=O | – | inconclusive: 12.6 µM [activator, single point]
O=C(c1ccc(C#Cc2ccccc2)o1)N1CCN(c2ccccn2)CC1 | inactive: -10.4% | –
CCCc1c(C)nc(SCC(=O)C(C)(C)C)nc1OC(=O)N(C)C | – | inconclusive: 2.24 µM [inhibitor, partial curve, poor fit]
O=C(Nc1cccc(Cl)c1N1CCOCC1)c1ccc(Br)o1 | – | inconclusive: 8.91 µM [inhibitor, partial curve, poor fit]
CCCn1c(O)c(CN2CCCC(C)C2)c(C)c(C#N)c1=O (stereo unspecified) | – | inconclusive: 5.62 µM [inhibitor, single point]
CC(C)c1ccc(-c2c(NCCc3ccccc3)c(=O)c2=O)cc1 | inactive: -0.0882% [at 46.1 µM] | –
CCOC(=O)c1c(C)[nH]c(C)c1C(=O)COC(=O)c1ccc(Cl)c(S(N)(=O)=O)c1 | – | inconclusive: 0.112 µM [activator, full curve, poor fit]
O=[N+]([O-])c1ccc(N/N=C/c2cn(-c3ccccc3)nc2-c2ccccc2)cc1 | – | inconclusive: 35.5 µM [inhibitor, single point]
Cn1c(=NC(=O)c2ccco2)sc2ccccc21 | – | inconclusive: 31.6 µM [inhibitor, single point]
O=C1NCCN1Cc1ccccc1F | inactive: -22% | –
COc1c(C)cc(Br)cc1C(=O)NC(=S)Nc1ccc(Cl)c(C(=O)O)c1 | – | inconclusive: 20 µM [inhibitor, single point]
CCOC(=O)CSc1nnc(NC(=O)c2cccc([N+](=O)[O-])c2C)s1 | – | inconclusive: 3.16 µM [inhibitor, partial curve, poor fit]
Cc1ccc2nc(NC(=O)c3ccc(Cn4cc(Cl)cn4)o3)sc2c1 | inactive: -2.86% | –
COc1ccc2oc(=Nc3cccc(F)c3)c(C(N)=O)cc2c1 | – | inconclusive: 2 µM [inhibitor, partial curve, poor fit]
C=CCn1sc(N)c(C(=O)OCC)c1=S | – | inconclusive: 0.0891 µM [inhibitor, full curve, poor fit]
NC(=O)C1(N2CCCCC2)CCN(Cc2ccc(F)cc2)CC1 | – | inconclusive: 1.64 µM [inhibitor, partial curve, poor fit]
O=c1oc(-c2ccccc2)cc(Cl)c1Cl | – | active: 11.2 µM
CSc1cccc(NC(=O)c2[nH]c(C)c(C(C)=O)c2C)c1 | – | inconclusive: 3.16 µM [activator, single point]
O=c1c(/C=N/N2CCOCC2)c(O)n(-c2ccccc2)c(=S)n1-c1ccccc1 | – | inconclusive: 2.51 µM [activator, full curve, poor fit]
O=C(Nc1ccc(Cl)cc1)c1cccnc1N1CCCCC1 | – | inconclusive: 29.1 µM [inhibitor, single point]

Structure (SMILES) | activity change, negative = inhibition | Potency
C=C1C(=O)[C@@]23[C@H](O)C[C@@H]4C(C)(C)CC[C@H](O)[C@]4(C)[C@@H]2C[C@H](O)[C@@H]1[C@H]3O | – | active: 20.6 µM
Cc1ccc(-c2cc(C)nc3ncnn23)cc1 | inactive: -2.09% | –
COc1ccc(-c2cc(=O)oc3c(O)c(O)ccc23)cc1 | – | inconclusive: 25.1 µM [inhibitor, single point]
O=C(COc1ccc(C(=S)N2CCOCC2)cc1)Nc1ccccc1C(F)(F)F | inactive: 7.3% [at 46.1 µM] | –
COc1c(C(=O)NC(=S)Nc2nnn(C)n2)cc2ccccc2c1Br | – | inconclusive: 11.2 µM [activator, single point]
Cc1cc(C(=O)N/N=C/c2ccc(OCc3ccccc3)cc2)c(C)o1 | inactive: -0.698% [at 46.1 µM] | –
CC(OC(=O)c1cc2sccc2n1C)C(=O)NCCc1ccccc1 (stereo unspecified) | – | inconclusive: 29.1 µM [inhibitor, single point]
O=C(Nc1cccnc1Cl)c1ccc(=O)oc1 | – | inconclusive: 11.2 µM [activator, single point]
O=C(Cc1ccccc1)NCc1ccc(-n2cccc2)cc1 | – | inconclusive: 5.17 µM [inhibitor, full curve]
Cc1nn(C)c(C)c1CS(=O)(=O)c1ccccc1 | – | inconclusive: 2.51 µM [activator, full curve, poor fit]
N#CCSc1nnc(-c2sc3ccccc3c2Cl)o1 | – | inconclusive: 28.2 µM [inhibitor, partial curve, poor fit]
Cc1cccc(CCN(C(=O)Cc2cccs2)C(C(=O)NC2CCCCC2)c2cccnc2)c1 (stereo unspecified) | – | inconclusive: 1.3 µM [inhibitor, partial curve, poor fit]
COc1cc(OC)cc(C(=O)N[C@H](C(=O)Nc2nc(-c3ccc(F)c(F)c3)cs2)C(C)C)c1 | – | inconclusive: 0.0046 µM [inhibitor, full curve, poor fit]
Cc1ccc(NC(=O)CNC(=O)c2ccco2)cc1 | inactive: 13.9% | –
c1ccc(-n2nnnc2-c2cnc(-c3ccncc3)nc2-c2cccs2)cc1 | inactive: -29% | –
COc1ccc(C(=O)COC(=O)CCCC(=O)Nc2ccc(C(C)=O)cc2)cc1 | – | inconclusive: 10 µM [activator, partial curve, poor fit]
CCOC(=O)c1c(NC(=O)CSc2ncnc3[nH]ncc23)sc2c1CCC(C)C2 (stereo unspecified) | – | inconclusive: 35.5 µM [inhibitor, single point]
CC(=O)c1cnc2cc(-c3ccccc3)nn2c1C | inactive: 28.7% | –
COc1cccc(C2Nc3c(F)cc(Br)cc3C3C=CCC32)c1OC (stereo unspecified) | inactive: -2.09% | –
CCC(C)(C)c1ccc(OCCCC[n+]2ccc(C)cc2)c(C(C)(C)CC)c1 | – | active: 20.6 µM
Brc1cc2c(cc1C1Nc3ccccc3C3C=CCC31)OCO2 (stereo unspecified) | – | inconclusive: 0.398 µM [inhibitor, partial curve, poor fit]
O=C(COC(=O)COc1ccc(Cl)cc1)Nc1ncc(Br)s1 | inactive: 10.2% [at 46.1 µM] | –
Nc1nn(-c2cccc(F)n2)cc1-c1ccc(Cl)cc1 | – | inconclusive: 3.55 µM [inhibitor, single point]
CC1CCN(C(=O)CNC(=O)c2ccc(Cl)cc2Cl)CC1 | inactive: -0.0327% | –

Random excerpt: four entries already listed.
Structure (SMILES) | activity change, negative = inhibition | Potency
CCOC(=O)c1c(NC(=O)CSc2ncnc3[nH]ncc23)sc2c1CCC(C)C2 (stereo unspecified) | – | inconclusive: 35.5 µM [inhibitor, single point]
O=c1c(/C=N/N2CCOCC2)c(O)n(-c2ccccc2)c(=S)n1-c1ccccc1 | – | inconclusive: 2.51 µM [activator, full curve, poor fit]
CCOC(=O)c1c(C)[nH]c(C)c1C(=O)COC(=O)c1ccc(Cl)c(S(N)(=O)=O)c1 | – | inconclusive: 0.112 µM [activator, full curve, poor fit]
Cc1ccc(-c2cc(C)nc3ncnn23)cc1 | inactive: -2.09% | –

Further results:

Structure (SMILES) | activity change, negative = inhibition | Potency
CCCCNC(=O)c1ccc2c(c1)ncn2C1CCCC1 | inactive: 13.3% | –
O=C(CCSc1ccccc1)N1CCOCC1 | inactive: -30% [at 46.1 µM] | –
CC(C)Oc1ccc(S(=O)(=O)N2CCCCC2)cc1NC(=O)CN1C(=O)NC(C)(C2CC2)C1=O (stereo unspecified) | – | inconclusive: 1.41 µM [inhibitor, partial curve]
COc1ccccc1NC(=O)C(C)N(C)Cc1ccc(Cl)s1 (stereo unspecified) | inactive: -16% | –
CCOc1ccc(S(=O)(=O)Nc2nc3ccccc3nc2Nc2ccc(N3CCOCC3)cc2)cc1 | – | inconclusive: 6.31 µM [activator, single point]
Cc1ccc(C(=O)NNC(=O)/C=C\C(=O)O)cc1 | inactive: 0.0144% [at 46.1 µM] | –
CCOc1cc(/C=N/NC(=O)c2ccc(CN3CCOCC3)cc2)ccc1OC | – | inconclusive: 5.62 µM [inhibitor, single point]
Cc1ccc(N(CC(=O)Nc2cc(Cl)ccc2Oc2ccccc2)S(C)(=O)=O)cc1C | – | inconclusive: 15.8 µM [inhibitor, single point]
CCOC(=O)c1cc2c(=O)n3ccccc3nc2n(Cc2ccco2)c1=NC(=O)c1ccc(OC)cc1 | – | inconclusive: 12.6 µM [activator, single point]
CCOC(=O)N1CCN(CC(O)COc2c(OC)cccc2OC)CC1 (stereo unspecified) | – | inconclusive: 3.55 µM [inhibitor, single point]
C/C(=N\Nc1nncc2ccccc12)c1ccc(OCC(=O)N(C)C)cc1 | inactive: 3.37% [at 46.1 µM] | –
CC1CCN(S(=O)(=O)c2ccc(NC(=O)CN3CCN(c4ccccc4)CC3)cc2)CC1 | – | inconclusive: 20.6 µM [inhibitor, single point]
COc1ccc(C(=O)Nc2cc(C)cc(C)c2)cc1S(=O)(=O)N1CCOCC1 | inactive: -18.2% | –
S=C(Nc1cccc(Cl)c1)Nc1ccc2c(c1)OCCO2 | – | inconclusive: 11.2 µM [activator, partial curve, poor fit]
COc1cc(NC(=O)Cn2c(=O)n(-c3ccccc3)c(=O)c3c4c(sc32)CCCC4)cc(OC)c1 | inactive: -1.5% [at 46.1 µM] | –
Cc1cc(C)c(NC(=O)Cn2nnc(C(=O)NCc3cccs3)c2N)c(C)c1 | – | inconclusive: 3.26 µM [inhibitor, partial curve, poor fit] and inconclusive: 10 µM [inhibitor, partial curve]
COc1ccc(NC(=O)/C=C/c2ccc(OC)c(OC)c2)cn1 | inactive: 12.9% | –
CN1CCN(S(=O)(=O)c2cccc(C(=O)Nc3ccccc3N3CCCC3)c2)CC1 | inactive: -19.6% | –
CCc1ccc(N2C(=O)CN(Cc3ccc(OC)c(OC)c3)C2=S)cc1 | inactive: -6.08% | –
CCOC(=O)C1CCCN(C(=O)COc2ccccc2O)C1 (stereo unspecified) | inactive: 4.99% | –
COc1ccc(CN2C(=S)NC(C)(C)CC2(C)O)cc1 (stereo unspecified) | – | inconclusive: 0.112 µM [activator, full curve, poor fit]
COc1ccc(-c2nc3c(c4c2C[C@H](c2ccccc2)OC4)CN(C(=O)N[C@@H](C)c2ccccc2)CC3)c(C)c1 | – | inconclusive: 1.19 µM [inhibitor, single point]
Cc1cc(C)cc(OCC(=O)N(Cc2cccs2)C2CCS(=O)(=O)C2)c1 (stereo unspecified) | – | inconclusive: 1.3 µM [activator, full curve, poor fit]
